Entries after “also recorded” stand apart in the source; their conditions may differ. For at least one compound, name, drawing or mass did not settle the structure.
Experiments:
[1] = system: relapsed and refractory AML; test: INT-17 trial, Phase 2, tipifarnib, analysed by CXCR4 expression; format: in vivo, human; settings: highest versus lowest CXCR4 expression quintile
Protocol: Previous clinical studies with tipifarnib were performed in newly diagnosed AML in elderly patients with poor risk AML (CTEP-20, Phase 2) or relapsed and refractory AML (INT-17, Phase 2). In these studies, patient selection was not based on genetic markers. Anecdotal evidence of tipifarnib single agent activity was reported.

[2] = system: T-cell leukemia and lymphoma (T-LL) cell lines; test: in vitro experiments with T-cell leukemia and lymphoma cell lines; format: cell-based; settings: T-LL cells showing higher CXCL12 expression compared with lower CXCL12 expression (FIG. 8)
[3] = system: peripheral T-cell lymphoma (PTCL); test: Phase II clinical study of tipifarnib in relapsed or refractory PTCL patients; format: in vivo, human; settings: for partial responses (PRs) observed: eighteen patients dosed
Source text: A Phase II clinical study of tipifarnib can be conducted with the primary objective being to assess the antitumor activity of tipifarnib, in terms of Objective Response Rate (ORR) in subjects with relapsed or refractory advanced peripheral T-cell lymphoma (PTCL). Determination of objective tumor response can be performed by the International Workshop Criteria (IWC) and/or measurable cutaneous disease according to the modified Severity Weighted Assessment Tool (mSWAT). Secondary objectives can include accessing the effect of tipifarnib on rate of progression-free survival (PFS) at 1 year, duration of response (DOR), overall survival (OS); and safety and tolerability of tipifarnib.
This Phase II study investigates the antitumor activity in terms of ORR of tipifarnib in subjects with PTCL. Up to 18 eligible subjects with advanced PTCL are enrolled. The total number of patients can be extended to 30.
Subjects receive tipifarnib administered at a starting dose of 900 mg, orally with food, twice a day (bid) for 7 days in alternating weeks (Days 1-7 and 15-21) in 28 day cycles. At the discretion of the investigator, the dose of tipifarnib can be increased to 1200 mg bid if the subject has not experienced dose limiting toxicities at the 900 mg dose level. Subjects who develop serious adverse events (SAE) or ≥grade 2 treatment-emergent adverse events (TEAE) that are deemed related to tipifarnib and lasting ≥14 days will not undergo dose escalation. Stepwise 300 mg dose reductions to control treatment-related, treatment-emergent toxicities are also allowed.
In the absence of unmanageable toxicities, subjects can continue to receive tipifarnib treatment until disease progression. If a complete response is observed, therapy with tipifarnib can be maintained for at least 6 months beyond the start of response.
Tumor assessments are performed at screening and at least once every approximately 8 weeks for 6 months (cycles 2, 4, 6) and once every approximately 12 weeks (cycles 9, 12, 15, etc.) thereafter, until disease progression, starting at the end of Cycle 2. Additional tumor assessments can be conducted if deemed necessary by the Investigator. Subjects who discontinue tipifarnib treatment for reasons other than disease progression must continue tumor assessments until disease progression, withdrawal of subject's consent to study
The study was an eighteen patient Phase II study with a Simon two-stage design (11+7). Two responses were required after the first eleven evaluable patients in order to proceed to second stage. Enrollment is to be extended to thirty patients if five responses are seen in the first stage.
The dose of 900 mg b.i.d. for seven days in alternate week dosing was amended during the first stage to 600 mg b.i.d. for seven days in alternate week dosing.
Formalin-fixed, paraffin-embedded (FFPE) samples were obtained from all subjects for the analysis of gene expression using RNA Seq and of single nucleotide variation (SNV, including SNPs and mutations) using next generation sequencing (NGS). Thirteen samples passed quality control (QC) for expression analysis. Sixteen samples passed quality control for SNV analysis.
This example describes a Phase 2 study (ClinicalTrials.gov Identifier: NCT02464228) designed to investigate the antitumor activity of tipifarnib in 18 patients with relapsed or refractory PTCL, and certain results of the study.
Primary outcome measures: Objective Response Rate (ORR) by the International Workshop Criteria (IWC) and/or measurable cutaneous disease according to the modified Severity Weighted Assessment Tool (mSWAT). Secondary outcome measures include the effect of tipifarnib on rate of progression-free survival (PFS) at 1 year, duration of response (DOR); and safety and tolerability of tipifarnib.
Study Design: oral tipifarnib 300 mg twice daily (bid) on days 1-21 of 28-day treatment cycles. A Simon two-stage design for ORR. […]

Cn1cncc1[C@@](N)(c1ccc(Cl)cc1)c1ccc2c(c1)c(-c1cccc(Cl)c1)cc(=O)n2C [tipifarnib]
median survival relative to lowest CXCR4 expression quintile [1]: about double
Tipifarnib potency (IC50) [2]: IC50 is lower
PTCL patients with durable responses ([3]; cohort of PTCL patients of Example II): 4 out of 8
partial responses (PRs) observed ([3]; first time point (FIG. 1)): Three
partial responses (PRs) observed ([3]; later second time point (FIG. 5)): Three
patients with greater than six months of stable disease ([3]; first time point): two
patients with greater than six months of stable disease ([3]; later second time point): four
patients who experienced tumor size reductions ([3]; of 12 patients with tumor gene expression data): Five
tumor size (SPD, Sum of the Products of Diameters) ([3]; subjects carrying CXCL12 reference 3′ UTR, over treatment cycles (FIG. 11)): reduces tumor size
PFS relative to last prior therapy ([3]; subjects with reference CXCL12 3′ UTR): doubled
response of the subjects with AITL ([3]; two subjects with AITL histology): both showed PRs; also recorded: experienced PRs

Source: US11541045B2, “Methods of treating cancer with farnesyltransferase inhibitors” (Kura Oncology, Inc., priority 2017, dated 2023)
